In EP4186547A1, “IN-VITRO AIRWAYS NEBULIZATION ASSAY” (PKDERM, priority 2021, dated 2023):
For at least one compound, name, drawing or mass did not settle the structure.

Tested on: EpiAirway AIR-100
Test: Validation of the model: LPS-induced inflammation in EpiAirway treated with dexamethasone
Assay type: cell-based
Conditions: LPS 100 µg/mL + Dexamethasone 100 µM, figures 4, 5 and 6, result in words

## C[C@@H]1C[C@H]2[C@@H]3CCC4=CC(=O)C=C[C@]4(C)[C@@]3(F)[C@@H](O)C[C@]2(C)[C@@]1(O)C(=O)CO [dexamethasone, Dexamethasone]
  LPS inflammatory effect: treated
